PubChem BioAssay AID504764 | Drosophila RNAi Screening Center | 2011
The screen tested about 22,000 reagents; this is a random part of those with a known target gene and a result. Over the whole deposit, 403 (1.9%) were called active. 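Unnormalised raw counts per well; ratio z-scores behind the hit calls and whether each hit raises or lowers signal are not deposited.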 Names joined by + are all predicted targets of the reagent. No sequences are given here. Not given: the amount of reagent.

Screen: 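Genome-wide screen for regulators of Notch-driven gene expression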 (primary screen)
Cell system: Drosophila Kc167 cells
Reagent: long dsRNA against Drosophila genes
Duration: about 5 days (4 days dsRNA, then 24 h after transfection)
Challenge: transfection of constitutively active membrane-tethered Notch lacking the extracellular domain, read 24 h later
Read-out: 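Light from a Notch-responsive E(spl)m3 luciferase reporter under active Notch, with control-promoter and no-Notch reporter wells to normalise; raw counts from paired wells a and b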
Reading the numbers: induced reporter light, run 1, well a and induced reporter light, run 1, well b: higher = more light from the Notch target reporter with active Notch; control promoter light, run 1, well a and control promoter light, run 1, well b: higher = more light from the viral control promoter (cell number, transfection, viability); uninduced reporter light, run 1, well a: higher = more light from the Notch target reporter without active Notch
Hit rule: 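Wells with low control signal or poorly matching duplicates excluded; duplicates averaged; per source plate, z beyond ±2 for induced/control log2 ratio or beyond ±1.8 for induced/uninduced marks a hit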
Calls: active = modifier hit (raised or lowered Notch signal); inactive = not a hit

NdufV3 (GeneID 32076) [DRSC19423]
- induced reporter light, run 1, well a: 93850
- induced reporter light, run 1, well b: 92080
- control promoter light, run 1, well a: 1.25e5
- control promoter light, run 1, well b: 1.73e5
- uninduced reporter light, run 1, well a: 7482
- Outcome: inactive

Lmx1a (GeneID 39406) [DRSC09726]
- induced reporter light, run 1, well a: 1.49e5
- induced reporter light, run 1, well b: 1.01e5
- control promoter light, run 1, well a: 1.61e5
- control promoter light, run 1, well b: 1.22e5
- uninduced reporter light, run 1, well a: 6465
- Outcome: inactive

Lmx1a (GeneID 39406) [DRSC10275]
- induced reporter light, run 1, well a: 8815
- induced reporter light, run 1, well b: 8365
- control promoter light, run 1, well a: 10935
- control promoter light, run 1, well b: 7315
- uninduced reporter light, run 1, well a: 3200
- Outcome: inactive

CG30203 (GeneID 246514) [DRSC06690]
- induced reporter light, run 1, well a: 83910
- induced reporter light, run 1, well b: 1.05e5
- control promoter light, run 1, well a: 1.24e5
- control promoter light, run 1, well b: 1.18e5
- uninduced reporter light, run 1, well a: 8560
- Outcome: inactive

S-Lap8 (GeneID 36844) [DRSC06870]
- induced reporter light, run 1, well a: 64015
- induced reporter light, run 1, well b: 75945
- control promoter light, run 1, well a: 95985
- control promoter light, run 1, well b: 94995
- uninduced reporter light, run 1, well a: 4278
- Outcome: active

CG30371 (GeneID 35806) [DRSC06835]
- induced reporter light, run 1, well a: 1.21e5
- induced reporter light, run 1, well b: 1.38e5
- control promoter light, run 1, well a: 1.38e5
- control promoter light, run 1, well b: 1.32e5
- uninduced reporter light, run 1, well a: 11635
- Outcome: inactive

CG11694 (GeneID 40985) [DRSC14354]
- induced reporter light, run 1, well a: 1.36e5
- induced reporter light, run 1, well b: 1.11e5
- control promoter light, run 1, well a: 1.60e5
- control promoter light, run 1, well b: 1.03e5
- uninduced reporter light, run 1, well a: 7410
- Outcome: inactive

CG15597 (GeneID 40767) [DRSC12283]
- induced reporter light, run 1, well a: 78340
- induced reporter light, run 1, well b: 90355
- control promoter light, run 1, well a: 73400
- control promoter light, run 1, well b: 97100
- uninduced reporter light, run 1, well a: 6465
- Outcome: inactive

babo (GeneID 35900) [DRSC07581]
- induced reporter light, run 1, well a: 2.09e5
- induced reporter light, run 1, well b: 1.93e5
- control promoter light, run 1, well a: 2.21e5
- control promoter light, run 1, well b: 2.51e5
- uninduced reporter light, run 1, well a: 17910
- Outcome: inactive

santa-maria (GeneID 34024) [DRSC00994]
- induced reporter light, run 1, well a: 1.24e5
- induced reporter light, run 1, well b: 1.35e5
- control promoter light, run 1, well a: 1.85e5
- control promoter light, run 1, well b: 1.61e5
- uninduced reporter light, run 1, well a: 11605
- Outcome: inactive

santa-maria (GeneID 34024) [DRSC02180]
- induced reporter light, run 1, well a: 1.60e5
- induced reporter light, run 1, well b: 1.42e5
- control promoter light, run 1, well a: 1.78e5
- control promoter light, run 1, well b: 1.79e5
- uninduced reporter light, run 1, well a: 15580
- Outcome: inactive

CG13984 (GeneID 33879) [DRSC02316]
- induced reporter light, run 1, well a: 1.96e5
- induced reporter light, run 1, well b: 1.82e5
- control promoter light, run 1, well a: 2.35e5
- control promoter light, run 1, well b: 2.10e5
- uninduced reporter light, run 1, well a: 12855
- Outcome: inactive

SelR (GeneID 41309) [DRSC16071]
- induced reporter light, run 1, well a: 50095
- induced reporter light, run 1, well b: 64300
- control promoter light, run 1, well a: 46055
- control promoter light, run 1, well b: 44350
- uninduced reporter light, run 1, well a: 2550
- Outcome: inactive

Phb1 (GeneID 49168) [DRSC03563]
- induced reporter light, run 1, well a: 1.71e5
- induced reporter light, run 1, well b: 1.48e5
- control promoter light, run 1, well a: 1.29e5
- control promoter light, run 1, well b: 1.19e5
- uninduced reporter light, run 1, well a: 12165
- Outcome: inactive

CG11658 (GeneID 39319) [DRSC09852]
- induced reporter light, run 1, well a: 1.61e5
- induced reporter light, run 1, well b: 1.24e5
- control promoter light, run 1, well a: 2.03e5
- control promoter light, run 1, well b: 1.39e5
- uninduced reporter light, run 1, well a: 6760
- Outcome: inactive

CG14695 (GeneID 41314) [DRSC14918]
- induced reporter light, run 1, well a: 73745
- induced reporter light, run 1, well b: 1.02e5
- control promoter light, run 1, well a: 92535
- control promoter light, run 1, well b: 80655
- uninduced reporter light, run 1, well a: 6495
- Outcome: inactive

en (GeneID 36240) [DRSC07609]
- induced reporter light, run 1, well a: 1.09e5
- induced reporter light, run 1, well b: 1.22e5
- control promoter light, run 1, well a: 1.50e5
- control promoter light, run 1, well b: 1.52e5
- uninduced reporter light, run 1, well a: 11580
- Outcome: inactive

CG17571 (GeneID 35409) [DRSC01768]
- induced reporter light, run 1, well a: 67060
- induced reporter light, run 1, well b: 74990
- control promoter light, run 1, well a: 64640
- control promoter light, run 1, well b: 67775
- uninduced reporter light, run 1, well a: 7250
- Outcome: inactive

CG17571 (GeneID 35409) [DRSC03755]
- induced reporter light, run 1, well a: 42090
- induced reporter light, run 1, well b: 40785
- control promoter light, run 1, well a: 41130
- control promoter light, run 1, well b: 32125
- uninduced reporter light, run 1, well a: 2795
- Outcome: inactive

Npl4 (GeneID 43091) [DRSC15615]
- induced reporter light, run 1, well a: 1.27e5
- induced reporter light, run 1, well b: 1.49e5
- control promoter light, run 1, well a: 1.80e5
- control promoter light, run 1, well b: 1.54e5
- uninduced reporter light, run 1, well a: 10085
- Outcome: inactive

Npl4 (GeneID 43091) [DRSC15616]
- induced reporter light, run 1, well a: 1.43e5
- induced reporter light, run 1, well b: 1.09e5
- control promoter light, run 1, well a: 1.20e5
- control promoter light, run 1, well b: 1.13e5
- uninduced reporter light, run 1, well a: 10550
- Outcome: inactive

Amy-d + Amy-p [DRSC21242]
- induced reporter light, run 1, well a: 1.05e5
- induced reporter light, run 1, well b: 1.24e5
- control promoter light, run 1, well a: 1.07e5
- control promoter light, run 1, well b: 1.46e5
- uninduced reporter light, run 1, well a: 12300
- Outcome: inactive

ppk8 (GeneID 318213) [DRSC17269]
- induced reporter light, run 1, well a: 75175
- induced reporter light, run 1, well b: 82805
- control promoter light, run 1, well a: 1.03e5
- control promoter light, run 1, well b: 1.11e5
- uninduced reporter light, run 1, well a: 6620
- Outcome: inactive

SC35 (GeneID 53444) [DRSC02502]
- induced reporter light, run 1, well a: 18320
- induced reporter light, run 1, well b: 22295
- control promoter light, run 1, well a: 19020
- control promoter light, run 1, well b: 19620
- uninduced reporter light, run 1, well a: 3805
- Outcome: inactive

SC35 (GeneID 53444) [DRSC03425]
- induced reporter light, run 1, well a: 1.09e5
- induced reporter light, run 1, well b: 1.28e5
- control promoter light, run 1, well a: 1.14e5
- control promoter light, run 1, well b: 1.24e5
- uninduced reporter light, run 1, well a: 9570
- Outcome: inactive
